Source: patent US7550438B2, “Methods for production of growth-promoting proteins and peptides for kidney epithelial cells” (The University of Chicago, priority 1997, dated 2009)
For at least one compound, name, drawing or mass did not settle the structure. Starred links: 1 amine or outer side, 2 acyl side, 3 side chain; linkers in the order of their positions; H or OH if unused. Residues, ends and D or L forms follow the SMILES beside them. CO = O=C([*:1])[*:2]

Tested on: BSC-1 cells
Test: Appearance or release of WGF growth-promoting activity from BSC-1 cells (scrape wounding, heparinase)
Format: cell-based, African green monkey
Conditions: cells preincubated 10 minutes with the protease inhibitor
Method: None of these agents inhibited cell growth when added to cells of nonwounded cultures. When added to the medium after the appearance of WGF mitogenic activity, neither PMSF nor aprotinin appeared to inhibit the increment in cell proliferation.
Confluent monolayer cultures were mechanically scraped using a 200 μL pipet tip (Continental Laboratory Products, San Diego, Calif.). […] (This process of scraping the cells has been termed “wounding” and has been used for many years as a model system to study repair of corneal abrasions of the eye. In effect, pressure is applied to cells sufficient to disrupt intercellular adhesion). To determine whether kidney epithelial cells released an autocrine growth factor into the medium after wounding, conditioned culture medium was removed from the culture dish after scrape-wounding a monolayer of BSC-1 cells. An aliquot was assayed for any growth-promoting activity on a nonwounded “detector” culture (1.2×10^6 cells per […]).
Treatment of a confluent monolayer of BSC-1 cells with the enzyme heparinase I (Sigma), but not heparinase III (Sigma), releases WGF mitogenic activity from cells into the culture media. […] When cells are first treated with heparinase I, rinsed, the media aspirated, and the monolayer is then scrape-wounded, no growth-promoting activity is detected in the conditioned media.

## CC(C)[C@H](NC(=O)[C@H](CCCNC(=N)N)NC(=O)N[C@@H](Cc1ccccc1)C(=O)O)C(=O)N[C@H](C=O)CCCNC(=N)N [antipain] ({Phe-CO}-Arg-Val-Arg-aldehyde)
  appearance of growth-promoting activity after wounding: prevented
